# Measured values published in PubChem BioAssay AID1347076 (National Center for Advancing Translational Sciences (NCATS), 2019).
# The campaign covered roughly 400,000 compounds. About 13,000 (3.2%) were called active. Inconclusive means that the source gave no clear call. Such entries were picked first, then a sample of the others. Calls follow the shape of the dose curve; as a rule, active = well fitted cell-killing curve with a large enough effect; inconclusive = small, poorly fitted or top-dose-only effect, or effect the other way; inactive = flat fitted curve, though single readings scatter. A potency beside an inconclusive call is a rough fit, not a confirmed value.
# Assay: qHTS assay for MDR1-selective chemotherapeutics: Primary screen using the drug-selected MDR subline cells KB-V1; also: nearly all actives have a fitted effect of over 60% in size
# Settings: KB-V1 MDR cells viability, CellTiter-Glo, 72 h; activity change, negative = cytotoxicity: at 46.1 µM (top of the series)
# Outline: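 Readout: CellTiter-Glo luminescence, 10 min after addition. Cells: KB-V1 MDR subline, 72 h at 37 degrees C with compound. Analysis: corrected, normalized data fitted to concentration-effect curves.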
# % is scaled to controls: 0 for no effect and ±100 for the full control effect; potency is read from the fitted curve at half-maximal effect.
Structure (SMILES),Potency,"activity change, negative = cytotoxicity"
CCN(CC)C(=O)Oc1ccc(Br)cc1C(=O)Nc1ccc(F)c(Cl)c1,"inconclusive: 23.1 µM [cytotoxic, partial curve, poor fit]",–
COc1cccc(NC(=O)CSC2=C(C#N)C(c3ccco3)C3=C(CCCC3=O)N2)c1 (stereo unspecified),"inconclusive: 29.1 µM [cytotoxic, partial curve, poor fit]",–
O=C(CSc1nc(C(F)(F)F)cc(=O)[nH]1)N1CCCCCC1,–,inactive: 9.21%
COc1ccc(NS(=O)(=O)c2ccc(NS(=O)(=O)c3ccc(SC)cc3)cc2)c(OC)c1,"inconclusive: 28.2 µM [cytotoxic, single point]",–
NC(Cc1ccccc1)c1csc(NC(=O)c2cccc(OC(F)(F)F)c2)n1 (stereo unspecified),"inconclusive: 29.1 µM [cytotoxic, single point]",–
CC(=O)c1c(C)[nH]c(C(=O)NCCC2=CCCCC2)c1C,"inconclusive: 11.6 µM [cytotoxic, partial curve]",–
CCc1cccc(C)c1NC(=O)CSc1n[nH]c(N)n1,"inconclusive: 13 µM [rising, partial curve, poor fit]",–
Cc1cc(NC(=O)CCC(=O)N(c2ccccc2)C2(C(=O)NC3CCCCC3)CCCC2)no1,"inconclusive: 20.6 µM [cytotoxic, partial curve]",–
O=C(NNC(=O)C1CCC1)c1ccccc1F,–,inactive: 2.65%
COc1ccc(C)cc1N(CC(=O)NCCSCc1ccco1)S(=O)(=O)c1ccc(C)cc1,"inconclusive: 29.1 µM [cytotoxic, single point]",–
CN(C)S(=O)(=O)n1cc(/C=C(\NC(=O)c2ccccc2F)C(=O)N2CCCC2)c2ccccc21,"inconclusive: 4.61 µM [cytotoxic, full curve]",–
Cc1ccc(S(=O)(=O)N2CCOC2CNC(=O)C(=O)NCc2ccc(Cl)cc2)cc1 (stereo unspecified),"inconclusive: 14.6 µM [cytotoxic, partial curve, poor fit]",–
CCOC(=O)c1cc(C#N)c(N2CCN(C(=O)c3cccc(C(F)(F)F)c3)CC2)nc1C(F)(F)F,"inconclusive: 14.6 µM [cytotoxic, single point]",–
O=C(NC(=S)Nc1cc(Cl)ccc1N1CCOCC1)c1ccc(-c2cccc(Cl)c2)o1,"inconclusive: 11.6 µM [cytotoxic, partial curve]",–
CC(C)C[C@H]1COc2cc(N3CC[C@@H](O)C3)ccc2S(=O)(=O)N1,"inconclusive: 23.1 µM [rising, partial curve, poor fit]",–
Cc1ccc(C(c2ccccc2)c2c(C)[nH]c3ccccc23)s1 (stereo unspecified),"inconclusive: 25.9 µM [cytotoxic, single point]",–

# A different layout for 2 compounds above:
Structure (SMILES) | Potency | activity change, negative = cytotoxicity
O=C(NNC(=O)C1CCC1)c1ccccc1F | – | inactive: 2.65%
Cc1ccc(S(=O)(=O)N2CCOC2CNC(=O)C(=O)NCc2ccc(Cl)cc2)cc1 (stereo unspecified) | inconclusive: 14.6 µM [cytotoxic, partial curve, poor fit] | –
